Results on one molecule are retold here after article PMC11321617 (Advanced Science, 2024).

Converted amounts (≈) assume the structure as drawn.

For the experiment, the system named is Escherichia coli O157:H7. Nature of the experiment: microbe, parasite or virus in culture. Type of experiment: cell-based. The note with it: 18 h. As for the experimental part: The MICs of the peptides were determined using the microplate broth dilution method.^[ [32] ^] The bacteria in the mid‐log phase were diluted to 5 × 10^5 colony forming units (CFU) mL^−1 in TSB. 100 µL of serially diluted peptide solution and 100 µL of diluted bacteria were put to a sterile 96‐well plate.

With `CC1(C)S[C@@H]2[C@H](NC(=O)[C@H](N)c3ccccc3)C(=O)N2[C@H]1C(=O)O` [ampicillin, Ampicillin], the MIC amounted to 12.5 µM (≈ 4.37 µg/mL).
